Source: PMC10339064
Results are given in words; binding and its absence hold for the method and conditions named. Binding seen in cells or lysates may run through a third protein. Some entries that bind do so weakly or less than the wild type.

The chains behind the UniProt entries cited, without tags or fusion partners.
UniProt Q12778: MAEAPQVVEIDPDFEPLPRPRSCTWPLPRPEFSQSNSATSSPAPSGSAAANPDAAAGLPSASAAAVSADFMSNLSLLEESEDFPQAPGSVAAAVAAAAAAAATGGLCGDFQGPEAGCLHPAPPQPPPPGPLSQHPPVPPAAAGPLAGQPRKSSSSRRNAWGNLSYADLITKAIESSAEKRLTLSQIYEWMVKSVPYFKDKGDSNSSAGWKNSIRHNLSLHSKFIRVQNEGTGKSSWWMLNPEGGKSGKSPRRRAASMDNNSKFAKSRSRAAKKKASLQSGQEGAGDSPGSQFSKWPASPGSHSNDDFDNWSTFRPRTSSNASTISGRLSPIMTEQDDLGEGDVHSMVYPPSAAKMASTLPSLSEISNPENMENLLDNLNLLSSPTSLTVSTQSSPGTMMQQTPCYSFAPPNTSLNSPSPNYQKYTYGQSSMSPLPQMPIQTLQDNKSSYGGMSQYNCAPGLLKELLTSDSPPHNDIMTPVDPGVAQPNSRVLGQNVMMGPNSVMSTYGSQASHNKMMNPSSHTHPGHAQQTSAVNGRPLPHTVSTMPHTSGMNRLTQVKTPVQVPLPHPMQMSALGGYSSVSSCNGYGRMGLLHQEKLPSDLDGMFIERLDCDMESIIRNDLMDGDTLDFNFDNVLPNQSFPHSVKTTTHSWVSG

Target: Forkhead box O1 (FoxO1), FLAG-tagged (UniProt Q12778)
Assay: co-IP; FLAG M2 magnetic beads on lysates of transfected HEK293 cells; lysis in buffer A (50 mM Tris-HCl pH 7.4, 150 mM NaCl, 1% NP-40, 1 mM EDTA, 10 mM NaF, 2 mM Na3VO4), IP in buffer A with 0.5% NP-40, 2 h at 4 °C (4 h or 8 h with malonyl-CoA, other acyl-CoAs (500 μM) or NADH added to the lysates); some cells treated with lactate/pyruvate ratios (1 h) or pemafibrate/fenofibrate (24 h); eluted with 3x FLAG peptide, Western blot

“C-terminal binding protein 2 (CtBP2), wild type, HA-tagged (from UniProt P56545 1-445)” was tested, and the binding was “binds”.
